Laboratory results reported in PMC4838231.
These are yes or no findings as the source states them, for the method shown. For some of these results: Binding seen in cells or lysates may run through a third protein. Some binding calls cover weakened binding; strength is not graded here. Tags and fused reporters may be left off the sequences shown.

What was measured:
[1] = molecular target: T1, Kin2-C9Δ42 (TD2 domain of Kin2 without the last 42 a.a.), Gal4 DNA-binding domain fusion (S. cerevisiae) (UniProt P13186); assay: two-hybrid; directed assay: pJ69-4α with pGBDU-C1-based baits mated with pJ69-4A with pOAD- or pGAD-based preys; growth of diploids on SC-Leu-Ura-His (with 3 mM 3-AT for Bmh1) or SC-Leu-Ura-Ade at 30°C for 3 days
T1 sequence: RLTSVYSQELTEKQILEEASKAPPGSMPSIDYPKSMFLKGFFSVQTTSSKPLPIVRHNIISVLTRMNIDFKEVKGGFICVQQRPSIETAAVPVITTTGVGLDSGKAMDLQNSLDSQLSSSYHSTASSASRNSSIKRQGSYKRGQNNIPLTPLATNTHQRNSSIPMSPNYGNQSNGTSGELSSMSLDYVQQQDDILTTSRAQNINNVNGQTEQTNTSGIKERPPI

[2] = molecular target: T2, Kin2-C6Δ42 (a.a. 780–1105), Gal4 DNA-binding domain fusion (S. cerevisiae) (UniProt P13186); assay: as above
T2 sequence: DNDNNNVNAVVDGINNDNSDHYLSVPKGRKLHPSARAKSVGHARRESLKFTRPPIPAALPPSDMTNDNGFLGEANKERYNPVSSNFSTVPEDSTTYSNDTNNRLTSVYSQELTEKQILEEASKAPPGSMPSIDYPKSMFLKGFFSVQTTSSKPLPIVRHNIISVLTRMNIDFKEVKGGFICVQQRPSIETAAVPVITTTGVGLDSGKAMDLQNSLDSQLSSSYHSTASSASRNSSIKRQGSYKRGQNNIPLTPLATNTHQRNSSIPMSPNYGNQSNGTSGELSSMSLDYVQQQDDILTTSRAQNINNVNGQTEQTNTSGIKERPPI

[3] = molecular target: T3, Kin2-Δ42 (Gal4 DNA-binding domain fusion from pGBDU-KIN2-Δ42) (S. cerevisiae) (UniProt P13186); assay: two-hybrid; library screens in yeast strain pJ69-4A or pJ69-4α with a pOAD-cDNA prey library; baits in pGBDU (Gal4 DBD); selection on SC-Leu-Ura-His with 3 mM 3-AT at 30°C, then SC-Leu-Ura-Ade; inserts sequenced
T3 sequence: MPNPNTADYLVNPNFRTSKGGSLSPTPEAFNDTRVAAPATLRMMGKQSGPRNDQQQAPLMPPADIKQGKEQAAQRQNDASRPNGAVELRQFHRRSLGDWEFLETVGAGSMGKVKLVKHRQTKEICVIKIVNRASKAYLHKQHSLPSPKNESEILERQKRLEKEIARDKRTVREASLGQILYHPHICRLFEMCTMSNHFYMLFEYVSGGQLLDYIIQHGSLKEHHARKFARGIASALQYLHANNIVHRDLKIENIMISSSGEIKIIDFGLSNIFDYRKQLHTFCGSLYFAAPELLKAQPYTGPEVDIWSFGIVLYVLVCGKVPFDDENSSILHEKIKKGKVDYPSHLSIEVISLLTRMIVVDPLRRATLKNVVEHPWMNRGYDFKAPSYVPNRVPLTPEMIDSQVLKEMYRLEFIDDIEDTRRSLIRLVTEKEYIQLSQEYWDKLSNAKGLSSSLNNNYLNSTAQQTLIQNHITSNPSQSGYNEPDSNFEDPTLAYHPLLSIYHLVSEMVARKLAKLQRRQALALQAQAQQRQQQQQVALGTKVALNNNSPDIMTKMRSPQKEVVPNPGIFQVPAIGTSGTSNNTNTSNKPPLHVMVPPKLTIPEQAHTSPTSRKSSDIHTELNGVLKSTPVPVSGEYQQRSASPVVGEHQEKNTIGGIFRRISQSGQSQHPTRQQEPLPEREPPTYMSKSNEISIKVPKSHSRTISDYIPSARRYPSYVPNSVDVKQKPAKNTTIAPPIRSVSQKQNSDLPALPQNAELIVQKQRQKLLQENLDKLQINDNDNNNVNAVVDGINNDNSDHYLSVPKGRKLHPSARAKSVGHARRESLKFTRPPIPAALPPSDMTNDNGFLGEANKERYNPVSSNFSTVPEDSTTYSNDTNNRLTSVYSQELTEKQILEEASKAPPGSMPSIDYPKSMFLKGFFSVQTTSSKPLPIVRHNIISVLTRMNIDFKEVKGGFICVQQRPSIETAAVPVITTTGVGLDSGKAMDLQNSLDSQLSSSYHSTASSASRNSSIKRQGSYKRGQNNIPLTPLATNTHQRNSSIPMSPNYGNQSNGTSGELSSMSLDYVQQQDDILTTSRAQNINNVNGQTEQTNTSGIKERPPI

[4] = molecular target: T4, Kin2-C6 (a.a. 780–1147), Venus-C fusion from pVC1-KIN2-C6 (S. cerevisiae) (UniProt P13186); assay: split reporter; BiFC with Venus-N (pVN1) and Venus-C (pVC1) fusions under the MET25 promoter in strain JGY3088 (kin1Δ kin2Δ); SC-His-Ura plate, 30°C, 16 hr; green fluorescence by microscopy
T4 sequence: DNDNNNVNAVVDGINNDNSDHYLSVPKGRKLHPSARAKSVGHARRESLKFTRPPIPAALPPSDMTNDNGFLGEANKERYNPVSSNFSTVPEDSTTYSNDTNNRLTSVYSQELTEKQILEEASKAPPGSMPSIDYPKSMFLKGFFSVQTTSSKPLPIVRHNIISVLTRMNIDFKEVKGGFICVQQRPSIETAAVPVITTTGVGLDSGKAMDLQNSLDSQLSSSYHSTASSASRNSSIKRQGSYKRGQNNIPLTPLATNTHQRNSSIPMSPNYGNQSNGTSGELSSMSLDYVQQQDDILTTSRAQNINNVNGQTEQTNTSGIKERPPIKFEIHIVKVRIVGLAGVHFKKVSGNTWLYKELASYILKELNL

Binder	binding [1]	binding [2]	binding [3]	binding [4]
Cdc11^72-415 (N-terminally truncated Cdc11), Gal4 activation domain fusion from pOAD (domain or fragment, UniProt P32458 72-415) TVELEDDEGVKIQLNIIDTPGFGDSLDNSPSFEIISDYIRHQYDEILLEESRVRRNPRFKDGRVHCCLYLINPTGHGLKEIDVEFIRQLGSLVNIIPVISKSDSLTRDELKLNKKLIMEDIDRWNLPIYNFPFDEDEISDEDYETNMYLRTLLPFAIIGSNEVYEMGGDVGTIRGRKYPWGILDVEDSSISDFVILRNALLISHLHDLKNYTHEILYERYRTEALSGESVAAESIRPNLTKLNGSSSSSTTTRRNTNPFKQSNNINNDVLNPASDMHGQSTGENNETYMTREEQIRLEEERLKAFEERVQQELLLKRQELLQREKELREIEARLEKEAKIKQEE	no binding	binds	binds	
Pea2 (Venus-N fusion from pVN1-PEA2) (protein, UniProt P40091 1-420) MHKFDLELSRRANPLLFSAERYEEYPLKYDELKQYLLSQNPSHPHHNSRPYTSIDYFDYLLYRSKNDESEIDLDKKLVSEFALYYVQKEHLNSDDLNPTLNELLKLQPKSADWYEMMLRILESINTTGIDQLTKENNNSFPNSKRARSSTNMGGTDKFNKGAYHTDKADDDKNEILQELTSFLMSNSIQKGIDIKPIPLDDPVKFLKNGINSILDTCVSLEKNTSSPPISPNAAAIQEEDSSKKLEELETAFSDLQLAHNFLTKQFENDRAEYVQDIEKLTRTNRELQDKLLNNHSNLSKTEKKLHELEQENKELEKANNKLNSSRHNFGMSSPASSPVTWDPSSPSSVGSPTSGSGSRSLSIMTSEFKKVLTSTQRKYEKELSDEREHRFKLERELALLKNAEANTSLALNRDDPPDML				binds
